Reference: the supplement of paper PMC3334620
The full ranking holds about 33,000 sequences; the median of “E-score (-0.5 to 0.5)” is about -0.016, and the highest 2% start at about 0.3. The list shows a part of the results.

Target: T1, Yer184c (UniProt P39961)
T1 sequence: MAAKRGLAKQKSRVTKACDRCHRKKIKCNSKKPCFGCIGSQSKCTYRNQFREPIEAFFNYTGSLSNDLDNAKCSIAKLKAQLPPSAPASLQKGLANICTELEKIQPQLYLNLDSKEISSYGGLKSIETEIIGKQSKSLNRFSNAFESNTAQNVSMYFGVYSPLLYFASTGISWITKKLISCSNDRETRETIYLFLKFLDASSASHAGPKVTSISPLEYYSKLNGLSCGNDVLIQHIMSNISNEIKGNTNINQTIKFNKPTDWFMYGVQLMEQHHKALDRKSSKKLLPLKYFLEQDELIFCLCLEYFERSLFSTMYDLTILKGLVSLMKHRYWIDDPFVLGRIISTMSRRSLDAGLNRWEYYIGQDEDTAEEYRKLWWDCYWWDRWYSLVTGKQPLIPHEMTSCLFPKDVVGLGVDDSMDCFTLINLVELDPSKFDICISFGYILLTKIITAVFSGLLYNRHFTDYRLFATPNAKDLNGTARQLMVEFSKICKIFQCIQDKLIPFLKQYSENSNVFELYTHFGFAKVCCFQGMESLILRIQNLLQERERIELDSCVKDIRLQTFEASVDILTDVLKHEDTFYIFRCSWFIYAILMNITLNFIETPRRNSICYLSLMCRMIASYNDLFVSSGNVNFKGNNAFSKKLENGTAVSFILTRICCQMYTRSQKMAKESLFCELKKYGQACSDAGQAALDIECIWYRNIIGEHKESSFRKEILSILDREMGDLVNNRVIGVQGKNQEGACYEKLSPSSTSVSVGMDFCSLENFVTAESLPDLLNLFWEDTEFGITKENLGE
Experiment: PBM E-score (8-mer binding enrichment) (E-score (-0.5 to 0.5)); higher = stronger / more preferred TF binding
Conditions: protein concentration: 100 nM; construct: GST-full length
In short: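 Using PURExpress in vitro transcription/translation, GST-tagged yeast transcription factors were made in full-length or DNA-binding-domain form. These were applied at about 100-200 nM to double-stranded universal all-10-mer Agilent arrays, and bound protein was detected with fluorescent anti-GST. Scans were normalised with masliner before the Universal PBM Analysis Suite assigned E-scores to ungapped eight-base words pooled with their reverse complements.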

Row | Sequence | PBM E-score
1 | GACCGCTA | 0.0247
2 | TAACATAA | 0.174
3 | CCTTCATC | -0.106
4 | GGTATAAA | 0.16
5 | GAATGCTA | -0.0261
6 | GGTACCTA | -0.172
7 | CGATTAGA | 0.069
8 | CCCACAGA | -0.227
9 | GTGGTGGA | -0.0431
10 | CGGATAGA | 0.338
11 | ATCAGATA | -0.0582
12 | AGACTAGG | -0.164
13 | ATCTTAGG | -0.148
14 | AACCTCGT | 0.00542
15 | CAAGCGTG | -0.139
16 | TCTATACA | -0.0576
17 | GACTAAAC | -0.117
18 | CGACTGAA | -0.0482
19 | CTGTACTC | -0.18
20 | ACCCCCCA | -0.319
21 | CGCTCCGA | 0.111
22 | ACAATGGA | 0.226
23 | ACGCTTCC | 0.0165
24 | GAAAGATA | 0.00057
25 | GGTGGCCA | -0.217

Row | Sequence | PBM E-score
26 | AATCCGAC | 0.182
27 | CGTACTAA | 0.0418
28 | AGTGGGCG | 0.0139
29 | ACGGATAC | 0.266
30 | CACCAGCC | -0.119
31 | CTTTGACA | 0.128
32 | GGGCCATA | 0.115
33 | CTTCGCAA | -0.0597
34 | TATAGCGA | -0.107
35 | AAACATGA | 0.146
36 | TCTCTTAA | 0.126
37 | ACCGGTAG | 0.0373
38 | GATGGGTA | -0.064
39 | AAAGTGGC | -0.191
40 | ATCAGGTC | -0.114
41 | GCTCATAA | 0.0613
42 | AATAATCG | 0.0241
43 | AGTGTCCC | 0.036
44 | CCGTCCCA | -0.129
45 | ATGATAAT | 0.129
46 | ATGCTCGA | -0.0483
47 | GGCCTGGA | -0.213
48 | CACAAGTC | -0.186
49 | AGCTTTAC | -0.0634
50 | AGGAAGAA | -0.158

Row | Sequence | PBM E-score
51 | GAAAGAAC | 0.138
52 | ACGGGGAC | -0.14
53 | CGTTGACA | -0.0766
54 | GCCCAGCA | 0.0142
55 | AGTGAGAG | -0.209
56 | CAGAGACG | 0.0363
57 | ACTACCAA | -0.00394
58 | AGATAACC | -0.06
59 | ACCGCGGA | 0.314
60 | ATCTTCCA | -0.114
61 | CGGTTGTC | 0.208
62 | GCGACTAA | 0.0914
63 | ATATCTAC | 0.102
64 | GCCTGTAA | -0.0307
65 | ATTACCTA | 0.11
66 | AGCTCGAC | 0.0731
67 | CCCAGGCC | -0.0855
68 | AGTTATAG | 0.0168
69 | CTTGGCAC | -0.0814
70 | GCCAGAAC | -0.044
71 | ACGTTTGA | 0.0158
72 | CGGGTAGC | 0.122
73 | ATATAGCC | 0.0726
74 | CTTGGCCA | -0.109
75 | AGTTTTAC | 0.0637

Row | Sequence | PBM E-score
76 | CGCGTTGC | 0.16
77 | CTTGACCA | -0.139
78 | ATGGCACC | -0.199
79 | CGGGTGCC | 0.0953
80 | TGTTTGAA | 0.177
81 | AGAATTCG | 0.109
82 | GGGGGTCA | -0.31
83 | ACGTGGTG | -0.255
84 | GAACCAGA | -0.0507
85 | GGCCCCGA | -0.024
86 | CAAGTTCC | 0.0076
87 | AGATAGAG | 0.0567
88 | CAGTTGAA | -0.104
89 | ACGCATCA | 0.0721
90 | ACTGTAAC | -0.0895
91 | AAGTAGCG | -0.0985
92 | CGGTCAAG | 0.13
93 | AAACACTA | 0.148
94 | GTATACCA | -0.0258
95 | AAAAGGGA | -0.127
96 | CGGCTAAA | 0.327
97 | GACGCGTC | -0.178
98 | AAAAAGAT | 0.164
99 | AGGAAGTA | 0.0741
100 | CTCCCCGC | 0.0142

Row | Sequence | PBM E-score
101 | AACATGCG | -0.0405
102 | CCTAACGA | -0.00444
103 | GTTCCGTA | 0.276
104 | ACTAGAAG | 0.0145
105 | AGGATGCG | -0.123
106 | CGTAGAGA | -0.0444
107 | CTCGCCGC | -0.0197
108 | AACCCGAG | 0.122
109 | CGATATAC | -0.0299
110 | GGTCCCTA | -0.184
111 | ACCGGAGA | 0.33
112 | CTGTCGTA | -0.0891
113 | GCCCTCAA | -0.232
114 | CCGAAGAC | 0.202
115 | CGCGTTGA | -0.00366
116 | CTCTAGCC | -0.0843
117 | ATCCAGGC | -0.188
118 | GGAAGCCC | 0.0509
119 | ACCTTTAT | -0.139
120 | CTGGGTTC | 0.0288
121 | AGGAGACA | 0.0183
122 | GTAAGAGA | -0.0957
123 | GCGTACCC | -0.219
124 | CAATTCGC | 0.281
125 | GCATCGGC | 0.176

Row | Sequence | PBM E-score
126 | GGCGGAGA | 0.195
127 | GTCTAAGA | 0.0677
128 | GTAGGTTA | -0.00416
129 | GTAATGAC | -0.0867
130 | GTTTTACA | -0.015
131 | CTCTATTC | -0.0103
132 | ATCCACGC | -0.275
133 | ACGTGCTA | -0.0967
134 | CACTGCGA | -0.0568
135 | CTTCTCAA | -0.0199
136 | AGTAATGG | 0.0286
137 | ATGGTTGG | -0.0798
138 | AGGACCCG | 0.0965
139 | ATTTCGTG | 0.12
140 | GAACCTTA | 0.18
141 | CTTCTACA | -0.00324
142 | CGCCAACA | 0.0135
143 | CTTGTAAA | 0.0315
144 | GCAGGGAA | 0.14
145 | AATCGGAA | 0.374
146 | AGCTTCCT | 0.0609
147 | AAAACCGT | 0.118
148 | GGGGAGGA | -0.259
149 | ATGATCAG | 0.0525
150 | TCGCATCA | 0.146

Looked up one by one from the list above (6):
Row | Sequence | PBM E-score
133 | ACGTGCTA | -0.0967
140 | GAACCTTA | 0.18
149 | ATGATCAG | 0.0525
129 | GTAATGAC | -0.0867
131 | CTCTATTC | -0.0103
148 | GGGGAGGA | -0.259

Single values from the entries so far:
Under PBM E-score, GTTTTACA shows -0.015
Under PBM E-score, GTCTAAGA shows 0.0677
Under PBM E-score, AATCGGAA shows 0.374

(list continues)

Row | Sequence | PBM E-score
151 | GAGTATCA | -0.0416
152 | CAGTAGTA | 0.0825
153 | ACCACCAA | -0.125
154 | ATGTGAAA | 0.118
155 | GCTGTAGA | 0.101
156 | CTCAGTGA | -0.172
157 | AAGTGCTC | -0.229
158 | ACAATTCT | 0.0476
159 | CTAACAGC | -0.00761
160 | TCGTCCCA | -0.0806
161 | ATAGCCGA | 0.299
162 | AACGCAGT | -0.081
163 | ATTTGTAA | 0.14
164 | CAGCCCTA | -0.0337
165 | AATATATA | 0.267
166 | GGGTTCAC | 0.00273
167 | CATAGACC | -0.0691
168 | ATGCTGTA | 0.074
169 | GAGTATCC | 0.0881
170 | GGGATCTA | -0.0536
171 | TATGTTGA | 0.0275
172 | CCAGGACA | -0.169
173 | GACGTCCA | -0.0411
174 | GATGGTCC | -0.144
175 | ACGCAATA | 0.135

Row | Sequence | PBM E-score
176 | GCTCGAAC | 0.034
177 | AGTCAAGG | -0.159
178 | ACACTTAC | 0.0858
179 | GGCTCCAC | -0.096
180 | GCGAGGAA | 0.183
181 | CTAGAACC | -0.00303
182 | ATCCGCAT | 0.111
183 | GGGCCGAA | 0.243
184 | AAACTTGT | 0.198
185 | CGATCTCA | -0.0159
186 | CGGTTAGA | 0.0556
187 | CCCCGAGG | 0.0698
188 | AACGCCCG | -0.015
189 | CATGAAGC | 0.101
190 | ACATTGCA | -0.152
191 | ACGTTCTG | -0.0311
192 | AGAGGTTG | -0.19
193 | GTACCATA | -0.0946
194 | AAATAGAC | -0.00964
195 | CGTACGTC | -0.245
196 | AGTTCGCG | 0.0747
197 | ATAAAGCG | 0.134
198 | CAGGGTGC | -0.248
199 | AAGCAACA | -0.0711
200 | CCGTCCGC | -0.107

Four entries from above, as labelled records.
AGTTCGCG
  PBM E-score = 0.0747
ATAAAGCG
  PBM E-score = 0.134
CAGGGTGC
  PBM E-score = -0.248
AAGCAACA
  PBM E-score = -0.0711

Continuation:

Row | Sequence | PBM E-score
201 | GATGAGAA | 0.00569
202 | AACAGAGG | -0.169
203 | ACTCACAC | -0.0217
204 | GTCCAAAC | -0.0319
205 | ATAAATCC | 0.104
206 | AACAAAGT | 0.148
207 | CCCGATTC | 0.109
208 | ATTTGAAC | 0.209
209 | ACACTGAC | -0.0345
210 | CCCGCCAC | -0.0706
211 | TACGCCAA | -0.142
212 | AAAGGGCG | -0.113
213 | CTTCGTCA | 0.0711
214 | CGATACAC | -0.00964
215 | CGCCGAGA | 0.346
216 | AATATATG | 0.153
217 | AGTACTCC | -0.189
218 | CGTCAGCA | 0.016
219 | ACACGGGC | 0.023
